IC50 data for one molecule are collected here from patent US20230090293A1, “ANTIBIOTICS” (ASTON UNIVERSITY, priority 2020, published 2023).

Usually IC50 stands for the concentration that gives 50% inhibition. Low readings indicate greater potency in that assay, high ones weaker potency in that assay.

For this assay, the system named is A2780 (cisplatin sensitive ovarian cancer cell line). As to the kind of experiment: In vitro chemosensitivity (MTT) assay, A2780. As to conditions: 24 h exposure, 72 h recovery, mean ± SD. The assay is classed as cell-based, human. As to the method: In vitro chemosensitivity tests were performed against HCT116 (colorectal cancer cell line), A2780 and A2780cisR (cisplatin sensitive and cisplatin resistant ovarian cancer cell lines, respectively). Cancer cell lines were routinely maintained as monolayer cultures in RPMI medium supplemented with 10% foetal calf serum, penicillin (100 I.U./ml) and streptomycin (100 μg/ml), sodium pyruvate (1 mM) and L-glutamine (2 mM). For chemosensitivity studies, cells were incubated in 96-well plates at a concentration of 7.5×10^3 cells per well and the plates were incubated for 24 hours at 37° C. and a 5% CO2 humidified atmosphere prior to drug exposure.
Complexes were dissolved in dimethylsulfoxide (DMSO) to provide stock solutions which were further diluted with media to provide a range of final concentrations. Drug-media solutions were added to cells (the final concentration of DMSO was less than 0.5% (v/v) in all cases) and incubated for 24 hours at 37° C. and 5% CO2 humidified atmosphere. […] A Thermo Scientific Multiskan EX microplate photometer was used to measure the absorbance in each well at 570 nm. Cell survival was determined as the absorbance of treated cells divided by the absorbance of controls and expressed as a percentage. The IC50 values were determined from plots of % survival against drug concentration. […]

In turn, `N.N.[Cl][Pt][Cl]` [cisplatin] had a half-inhibitory concentration (IC50) of 5.7 ± 0.4 µM.
